According to patent US5628328A, “Method for measuring muscle mass” (priority 1995, dated 1997):

Test: Correlation of model compartments with muscle, pigs
Assay type: in vivo

Cn1cnc(C[C@H](N)C(=O)O)c1 [3-methylhistidine]
Correlation coefficient r, plasma 3MH vs. kg of muscle: -0.52

The amount applied is not stated for every result.
